Assay results from patent US5750354A, “Lipoxin transport system and uses therefor” (priority 1994, dated 1998).

Test system: lipoxin transport system
Test: [3H]LXA4 influx into human neutrophils (unidirectional tracer flux)
Conditions: pHo 5.0-8.3, titration curve fit

CCCCC[C@H](O)/C=C/C=C\C=C\C=C\[C@@H](O)[C@@H](O)CCCC(=O)O [LXA4, (5S,6R,15S)-trihydroxy-7,9,13-trans-11-cis-eicosatetraenoic acid]
apparent pK' of pH dependence of [3H]LXA4 influx: 5.9±0.1 and 5.9

“And” between values parts separate entries of the source, which are not always exact repeats. Equal entries are not always repeated.
